The values below come from PMC7555550.

Sequences of proteins named here, by UniProt entry; tags and fusion partners are left off. A change or cut given only in a name is not applied to a line headed by its entry.
UniProt Q8IXL6: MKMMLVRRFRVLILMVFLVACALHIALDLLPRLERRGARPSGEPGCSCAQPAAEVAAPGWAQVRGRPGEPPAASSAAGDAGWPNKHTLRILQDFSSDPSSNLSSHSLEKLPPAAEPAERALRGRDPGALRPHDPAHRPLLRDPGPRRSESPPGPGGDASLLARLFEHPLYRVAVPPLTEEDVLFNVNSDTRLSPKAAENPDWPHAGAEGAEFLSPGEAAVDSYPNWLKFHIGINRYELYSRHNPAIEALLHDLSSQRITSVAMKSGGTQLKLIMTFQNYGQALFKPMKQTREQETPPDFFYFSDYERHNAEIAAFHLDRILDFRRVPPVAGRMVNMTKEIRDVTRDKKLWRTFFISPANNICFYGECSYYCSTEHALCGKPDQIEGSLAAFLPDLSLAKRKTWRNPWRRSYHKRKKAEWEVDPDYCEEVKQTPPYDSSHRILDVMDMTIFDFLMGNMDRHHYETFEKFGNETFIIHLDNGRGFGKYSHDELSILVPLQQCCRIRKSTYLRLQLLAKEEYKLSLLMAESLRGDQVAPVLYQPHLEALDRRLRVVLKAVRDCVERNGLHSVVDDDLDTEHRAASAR

No constants are given. Whether binding was seen depends on the method and setting. Binding seen in cells or lysates may run through a third protein. A result given as binding can be weak or reduced; the word gives no strength. Where a sequence is shown, tags or fusion partners need not be part of it.

The experiment addresses FAM20C-P328S-V5/His (human) (UniProt Q8IXL6). Nature of the experiment: co-IP; HEK 293 cells transiently co-transfected; cell lysates 24 h after transfection immunoprecipitated with anti-V5 antibody, Western blot with anti-HA antibody.

B1: mouse Periostin with C-terminal HA tag (pCAGI-puro delta Periostin (b-)-WT-HA) (protein, UniProt Q62009-2 24-811)
chain: NSYYDKVLAHSRIRGRDQGPNVCALQQILGTKKKYFSSCKNWYQGAICGKKTTVLYECCPGYMRMEGMKGCPAVMPIDHVYGTLGIVGATTTQHYSDVSKLREEIEGKGSYTYFAPSNEAWENLDSDIRRGLENNVNVELLNALHSHMVNKRMLTKDLKHGMVIPSMYNNLGLFINHYPNGVVTVNCARVIHGNQIATNGVVHVIDRVLTQIGTSIQDFLEAEDDLSSFRAAAITSDLLESLGRDGHFTLFAPTNEAFEKLPRGVLERIMGDKVASEALMKYHILNTLQCSEAITGGAVFETMEGNTIEIGCEGDSISINGIKMVNKKDIVTKNGVIHLIDEVLIPDSAKQVIELAGKQQTTFTDLVAQLGLASSLKPDGEYTLLAPVNNAFSDDTLSMDQRLLKLILQNHILKVKVGLSDLYNGQILETIGGKQLRVFVYRTAICIENSCMVRGSKQGRNGAIHIFREIIQPAEKSLHDKLRQDKRFSIFLSLLEAADLKDLLTQPGDWTLFAPTNDAFKGMTSEERELLIGDKNALQNIILYHLTPGVYIGKGFEPGVTNILKTTQGSKIYLKGVNETLLVNELKSKESDIMTTNGVIHVVDKLLYPADIPVGNDQLLELLNKLIKYIQIKFVRGSTFKEIPMTVYRPAMTKIQIEGDPDFRLIKEGETVTEVIHGEPVIKKYTKIIDGVPVEITEKQTREERIITGPEIKYTRISTGGGETGETLQKFLQKEVSKVTKFIEGGDGHLFEDEEIKRLLQGDTPAKKIPANKRVQGPRRRSREGRSQ
On to B1, for which the binding result was “binds”.
